Measurements as given in patent US20210322350A1, “EXOGENOUS KETONE SUPPLEMENTATION COMPOSITIONS, SYSTEMS AND METHODS” (Ketone Clarity LLC, priority 2020, published 2021).
At least one compound was matched to its structure with a doubt left.

Assay: Sleep cycles (deep and light sleep time) with D-BHB taken prior to sleep
Assay type: in vivo
Conditions: supplemented with 10-20 g
Source text: During deep sleep, a variety of functions take place in the mind and body. During deep sleep not only does physical recovery occur. The brain recuperates as well during which memories are consolidated and learning and emotions are processed. Physiologically, blood sugar levels and metabolism balance out and the immune system is energized. FIG. 11 is a graphical illustration of improved sleep time resulting from enhanced D-BHB levels according to the claimed invention based on the data detailed in Table 1.
The data gathered in Table 1 reflects unaided sleep cycles in bold together with sleep aided by 10-20 g D-BHB which is reflective of a preferred embodiment of the claimed invention. On average, unaided sleep results in approximately 1.5 hours of deep sleep in an eight hour sleep cycle. […] In a preferred and foreseen embodiment of the claimed invention, improved deep sleep is achieved as a result of exogenous ketone D-BHB supplementation.

CC(O)CC(=O)O [D-BHB, D-Beta-HydroxyButyric Acid]
deep sleep, average (unaided 1:27): 2:34 hours: minutes | light sleep, average (unaided 6:47): 6:53 hours: minutes
